# The supplement of paper PMC11438910
# The list shows a part of the results. Most of these values are background signal.
# What was measured:
# Assay in all cases: fluorescence intensity of antibody binding to polysaccharide-coupled beads; higher = stronger binding
# [1] = molecular target: pneumococcal polysaccharide Pn2
# [2] = molecular target: pneumococcal polysaccharide Pn20A
# [3] = molecular target: pneumococcal polysaccharide Pn20B
# [4] = molecular target: pneumococcal polysaccharide Pn21
# [5] = molecular target: pneumococcal polysaccharide Pn22A
# [6] = molecular target: pneumococcal polysaccharide Pn22F
# [7] = molecular target: pneumococcal polysaccharide Pn23A
# [8] = molecular target: pneumococcal polysaccharide Pn23B
# [9] = molecular target: pneumococcal polysaccharide Pn23F
# [10] = molecular target: pneumococcal polysaccharide Pn24A
# [11] = molecular target: pneumococcal polysaccharide Pn24B
# [12] = molecular target: pneumococcal polysaccharide Pn24F
# [13] = molecular target: pneumococcal polysaccharide Pn25A
# [14] = molecular target: pneumococcal polysaccharide Pn25F
# [15] = molecular target: pneumococcal polysaccharide Pn27
# [16] = molecular target: pneumococcal polysaccharide Pn28A
# [17] = molecular target: pneumococcal polysaccharide Pn28F
# [18] = molecular target: pneumococcal polysaccharide Pn29
# [19] = molecular target: pneumococcal polysaccharide Pn3
# [20] = molecular target: pneumococcal polysaccharide Pn31
# [21] = molecular target: pneumococcal polysaccharide Pn32A
# [22] = molecular target: pneumococcal polysaccharide Pn32F
# [23] = molecular target: pneumococcal polysaccharide Pn33A
# [24] = molecular target: pneumococcal polysaccharide Pn33B
# [25] = antibody concentration 2337.65 ng/mL
# [26] = antibody concentration 12500 ng/mL
# [27] = antibody concentration 0.1 ng/mL
# [28] = antibody concentration 0.534724 ng/mL
# [29] = antibody concentration 2.8593 ng/mL
# [30] = antibody concentration 15.2894 ng/mL
# [31] = antibody concentration 81.7561 ng/mL
# [32] = antibody concentration 437.17 ng/mL
binder,measurement,setting,value
3S41.3 (protein) chain 1: EVQLVESGGGLVQPGGSLRLSCATSGFTFSNYWMYWFRQAPGKGLEWVSTISGSSSNTYYPDSVKGRFTISRDNAKNTLYLQINSLRAEDTAVYYCARRHDHSSGWAFDYWGQGVLVTVSS chain 2: EIVMTQSPATLSLSPGERATLSCRASQSVGSNLAWYQQKPGQAPKLLIYDASSRATGIPDRFSGSGSGTDFTLTVSSLEPEDVGVYYCQQYNNWKTFGQGTKVEIK,fluorescence intensity,[1]; [25],29.2 MFI
same,fluorescence intensity,[1]; [26],54.2 MFI
same,fluorescence intensity,[2]; [27],23 MFI
same,fluorescence intensity,[2]; [28],20.5 MFI
same,fluorescence intensity,[2]; [29],21.5 MFI
same,fluorescence intensity,[2]; [30],22 MFI
same,fluorescence intensity,[2]; [31],22.5 MFI
same,fluorescence intensity,[2]; [32],39.5 MFI
same,fluorescence intensity,[2]; [25],274 MFI
same,fluorescence intensity,[2]; [26],986 MFI
same,fluorescence intensity,[3]; [27],22 MFI
same,fluorescence intensity,[3]; [28],23 MFI
same,fluorescence intensity,[3]; [29],22 MFI
same,fluorescence intensity,[3]; [30],23 MFI
same,fluorescence intensity,[3]; [31],21.5 MFI
same,fluorescence intensity,[3]; [32],28 MFI
same,fluorescence intensity,[3]; [25],58 MFI
same,fluorescence intensity,[3]; [26],179 MFI
same,fluorescence intensity,[4]; [27],18.5 MFI
same,fluorescence intensity,[4]; [28],19.5 MFI
same,fluorescence intensity,[4]; [29],18 MFI
same,fluorescence intensity,[4]; [30],18 MFI
same,fluorescence intensity,[4]; [31],19 MFI
same,fluorescence intensity,[4]; [32],22.5 MFI
same,fluorescence intensity,[4]; [25],37.5 MFI
same,fluorescence intensity,[4]; [26],69.5 MFI
same,fluorescence intensity,[5]; [27],19.8 MFI
same,fluorescence intensity,[5]; [28],21.5 MFI
same,fluorescence intensity,[5]; [29],21.5 MFI
same,fluorescence intensity,[5]; [30],19.5 MFI
same,fluorescence intensity,[5]; [31],22.2 MFI
same,fluorescence intensity,[5]; [32],28 MFI
same,fluorescence intensity,[5]; [25],104 MFI
same,fluorescence intensity,[5]; [26],395 MFI
same,fluorescence intensity,[6]; [27],28 MFI
same,fluorescence intensity,[6]; [28],29.8 MFI
same,fluorescence intensity,[6]; [29],27.5 MFI
same,fluorescence intensity,[6]; [30],31.2 MFI
same,fluorescence intensity,[6]; [31],32 MFI
same,fluorescence intensity,[6]; [32],37.2 MFI
same,fluorescence intensity,[6]; [25],70.2 MFI
same,fluorescence intensity,[6]; [26],164 MFI
same,fluorescence intensity,[7]; [27],21.5 MFI
same,fluorescence intensity,[7]; [28],26.5 MFI
same,fluorescence intensity,[7]; [29],26 MFI
same,fluorescence intensity,[7]; [30],24 MFI
same,fluorescence intensity,[7]; [31],36 MFI
same,fluorescence intensity,[7]; [32],56 MFI
same,fluorescence intensity,[7]; [25],110 MFI
same,fluorescence intensity,[7]; [26],372 MFI
same,fluorescence intensity,[8]; [27],30.5 MFI
same,fluorescence intensity,[8]; [28],29.8 MFI
same,fluorescence intensity,[8]; [29],27 MFI
same,fluorescence intensity,[8]; [30],32 MFI
same,fluorescence intensity,[8]; [31],32 MFI
same,fluorescence intensity,[8]; [32],30.8 MFI
same,fluorescence intensity,[8]; [25],35.8 MFI
same,fluorescence intensity,[8]; [26],75.5 MFI
same,fluorescence intensity,[9]; [27],18.2 MFI
same,fluorescence intensity,[9]; [28],18.2 MFI
same,fluorescence intensity,[9]; [29],17.5 MFI
same,fluorescence intensity,[9]; [30],17.2 MFI
same,fluorescence intensity,[9]; [31],19.5 MFI
same,fluorescence intensity,[9]; [32],25.8 MFI
same,fluorescence intensity,[9]; [25],33.2 MFI
same,fluorescence intensity,[9]; [26],59 MFI
same,fluorescence intensity,[10]; [27],14.5 MFI
same,fluorescence intensity,[10]; [28],15.8 MFI
same,fluorescence intensity,[10]; [29],15.5 MFI
same,fluorescence intensity,[10]; [30],15.8 MFI
same,fluorescence intensity,[10]; [31],15.5 MFI
same,fluorescence intensity,[10]; [32],16.8 MFI
same,fluorescence intensity,[10]; [25],26.5 MFI
same,fluorescence intensity,[10]; [26],87 MFI
same,fluorescence intensity,[11]; [27],18 MFI
same,fluorescence intensity,[11]; [28],16.8 MFI
same,fluorescence intensity,[11]; [29],17.5 MFI
same,fluorescence intensity,[11]; [30],17.5 MFI
same,fluorescence intensity,[11]; [31],18 MFI
same,fluorescence intensity,[11]; [32],24 MFI
same,fluorescence intensity,[11]; [25],64.5 MFI
same,fluorescence intensity,[11]; [26],208 MFI
same,fluorescence intensity,[12]; [27],16.2 MFI
same,fluorescence intensity,[12]; [28],16.8 MFI
same,fluorescence intensity,[12]; [29],16.5 MFI
same,fluorescence intensity,[12]; [30],20 MFI
same,fluorescence intensity,[12]; [31],20 MFI
same,fluorescence intensity,[12]; [32],28.8 MFI
same,fluorescence intensity,[12]; [25],41.2 MFI
same,fluorescence intensity,[12]; [26],119 MFI
same,fluorescence intensity,[13]; [27],21.8 MFI
same,fluorescence intensity,[13]; [28],23.5 MFI
same,fluorescence intensity,[13]; [29],23.5 MFI
same,fluorescence intensity,[13]; [30],24.5 MFI
same,fluorescence intensity,[13]; [31],23.2 MFI
same,fluorescence intensity,[13]; [32],30.8 MFI
same,fluorescence intensity,[13]; [25],36.8 MFI
same,fluorescence intensity,[13]; [26],53.8 MFI
same,fluorescence intensity,[14]; [27],29 MFI
same,fluorescence intensity,[14]; [28],28.5 MFI
same,fluorescence intensity,[14]; [29],28.8 MFI
same,fluorescence intensity,[14]; [30],29.5 MFI
same,fluorescence intensity,[14]; [31],28 MFI
same,fluorescence intensity,[14]; [32],35.8 MFI
same,fluorescence intensity,[14]; [25],73.2 MFI
same,fluorescence intensity,[14]; [26],172 MFI
same,fluorescence intensity,[15]; [27],15.5 MFI
same,fluorescence intensity,[15]; [28],15 MFI
same,fluorescence intensity,[15]; [29],17 MFI
same,fluorescence intensity,[15]; [30],16.5 MFI
same,fluorescence intensity,[15]; [31],20.5 MFI
same,fluorescence intensity,[15]; [32],76 MFI
same,fluorescence intensity,[15]; [25],551 MFI
same,fluorescence intensity,[15]; [26],1200 MFI
same,fluorescence intensity,[16]; [27],24 MFI
same,fluorescence intensity,[16]; [28],27 MFI
same,fluorescence intensity,[16]; [29],26 MFI
same,fluorescence intensity,[16]; [30],26 MFI
same,fluorescence intensity,[16]; [31],27 MFI
same,fluorescence intensity,[16]; [32],29 MFI
same,fluorescence intensity,[16]; [25],42.5 MFI
same,fluorescence intensity,[16]; [26],83.5 MFI
same,fluorescence intensity,[17]; [27],28 MFI
same,fluorescence intensity,[17]; [28],27.2 MFI
same,fluorescence intensity,[17]; [29],30.2 MFI
same,fluorescence intensity,[17]; [30],27.5 MFI
same,fluorescence intensity,[17]; [31],31 MFI
same,fluorescence intensity,[17]; [32],49.8 MFI
same,fluorescence intensity,[17]; [25],249 MFI
same,fluorescence intensity,[17]; [26],667 MFI
same,fluorescence intensity,[18]; [27],15 MFI
same,fluorescence intensity,[18]; [28],16.5 MFI
same,fluorescence intensity,[18]; [29],16.5 MFI
same,fluorescence intensity,[18]; [30],15.2 MFI
same,fluorescence intensity,[18]; [31],19 MFI
same,fluorescence intensity,[18]; [32],53.5 MFI
same,fluorescence intensity,[18]; [25],426 MFI
same,fluorescence intensity,[18]; [26],1040 MFI
same,fluorescence intensity,[19]; [27],13.5 MFI
same,fluorescence intensity,[19]; [28],18.2 MFI
same,fluorescence intensity,[19]; [29],47.5 MFI
same,fluorescence intensity,[19]; [30],211 MFI
same,fluorescence intensity,[19]; [31],980 MFI
same,fluorescence intensity,[19]; [32],4260 MFI
same,fluorescence intensity,[19]; [25],18200 MFI
same,fluorescence intensity,[19]; [26],19200 MFI
same,fluorescence intensity,[20]; [27],13.5 MFI
same,fluorescence intensity,[20]; [28],13 MFI
same,fluorescence intensity,[20]; [29],14 MFI
same,fluorescence intensity,[20]; [30],15 MFI
same,fluorescence intensity,[20]; [31],16.5 MFI
same,fluorescence intensity,[20]; [32],67 MFI
same,fluorescence intensity,[20]; [25],492 MFI
same,fluorescence intensity,[20]; [26],1100 MFI
same,fluorescence intensity,[21]; [27],16.5 MFI
same,fluorescence intensity,[21]; [28],14.5 MFI
same,fluorescence intensity,[21]; [29],17.5 MFI
same,fluorescence intensity,[21]; [30],16.5 MFI
same,fluorescence intensity,[21]; [31],18 MFI
same,fluorescence intensity,[21]; [32],26.8 MFI
same,fluorescence intensity,[21]; [25],92.8 MFI
same,fluorescence intensity,[21]; [26],248 MFI
same,fluorescence intensity,[22]; [27],25 MFI
same,fluorescence intensity,[22]; [28],27 MFI
same,fluorescence intensity,[22]; [29],26.5 MFI
same,fluorescence intensity,[22]; [30],29.2 MFI
same,fluorescence intensity,[22]; [31],33 MFI
same,fluorescence intensity,[22]; [32],47 MFI
same,fluorescence intensity,[22]; [25],80.5 MFI
same,fluorescence intensity,[22]; [26],176 MFI
same,fluorescence intensity,[23]; [27],16.5 MFI
same,fluorescence intensity,[23]; [28],17.5 MFI
same,fluorescence intensity,[23]; [29],17.5 MFI
same,fluorescence intensity,[23]; [30],18 MFI
same,fluorescence intensity,[23]; [31],22 MFI
same,fluorescence intensity,[23]; [32],92 MFI
same,fluorescence intensity,[23]; [25],946 MFI
same,fluorescence intensity,[23]; [26],2380 MFI
same,fluorescence intensity,[24]; [27],17.5 MFI
same,fluorescence intensity,[24]; [28],17 MFI
